These results are taken from PubChem BioAssay AID1347426 (Functional Genomics Laboratory (NCATS/FGL), 2020).

The campaign covered roughly 31,000 sequences. About 1,400 (4.5%) were called active.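 How the source made its calls: active means median seed-adjusted z-score above 1 or below -1; inactive means the rest.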 The list shows a part of the results.

A short description of this experiment: Novel Modifiers of Survival Motor Neuron (SMN) Protein: Gene Identification via Genome-wide siRNA Screen.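 Further: luminescence tracks full-length SMN protein made from the SMN2 reporter.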 As to conditions: HEK293T SMN2-luciferase reporter, siRNA knockdown, 72 h; actives lie on both sides. In a few lines:
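HEK293T cells stably carrying an SMN2 promoter/splicing cassette–luciferase reporter were reverse-transfected with 1 pmol siRNA per well (druggable-genome library, 3 siRNAs per gene) and grown 72 h at 37 °C. Luminescence, normalized to negative-control siRNA and log10-transformed, was scored as MAD.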
(A reporter such as luciferase makes a cellular process visible.)
On to GGCAAGUUGUUCUCCGUAATT against NUP160, for which the median seed-adjusted z-score was inactive: -0.261. As for CAGCAAAAACGUAAGAUCUTT against ZFAND2B, the figure is inactive: 0; as for GCAUGUCCAUUUCGGCUGATT against BPI, inactive: 0; as for CAAAGAUGAUUAUCCAUCUTT against UBE2I, inactive: 0.717.

For GGAUUGUAUUAAAUCCAGATT against SLC25A2, the median seed-adjusted z-score is inactive: 0.586.

As for GAGGAAUAUUGAAGGCAAATT against IRF2, the median seed-adjusted z-score was inactive: 0.367.

Regarding CUACGGAGAGUGUACGAUUTT against CHST2, the median seed-adjusted z-score is inactive: 0. As for GGAAAUAUCGGAACCAGAATT against JMJD6, the median seed-adjusted z-score is inactive: 0.314.

For the sequence GCAUAGCAGAAUGGAGUAATT against MUSK, the median seed-adjusted z-score was inactive: 0.138.

In the case of CCAUCCUUCCCAGAUAUUATT against HDDC3, the median seed-adjusted z-score is inactive: 0.549.

GGUCAUUGAUUUAGAUGAATT against CTDSPL: the median seed-adjusted z-score is inactive: 0.43. CAACAACGAGAAUCCUGAATT against TSPYL2: the median seed-adjusted z-score was inactive: 0.0187. As for GAGGCUUGCUGGACCUAAATT against PLA2G5, the figure is inactive: 0.0601; as for GCAAUUACAUUGUACGCUUTT against ETFDH, inactive: 0.154.

As for GGACCACGUCAAGACUUGUTT against TRAF2, the median seed-adjusted z-score is inactive: -0.00463. For the sequence GGUAUGAACAGUAUGCCUATT against HLA-G, the median seed-adjusted z-score was inactive: 0.0348. As for CUGUUGGAAUUCUUCGAAATT against AGL, the figure is inactive: -0.385. As for GUACCUUUCUACCACUUUATT against MITF, the figure is inactive: -0.249; as for GGAGUUCAUCCGUCAAGUUTT against BIRC3, inactive: -0.644. The figure for GCUUCAUCGUGUACUACAATT against INSRR is inactive: 0.13. For GAACAACAGAGAUAAGAAATT against CRCP, the median seed-adjusted z-score is inactive: 0. The figure for CCGUCUCUUCUUGACCUAUTT against B3GNT4 is inactive: 0.124; for GGACAUGGGUCAGAGUGAATT against GRPEL1 it is inactive: 0.

As to GGAAGUCUGUUGACACUCATT against JMJD1C, the median seed-adjusted z-score was inactive: 0.0338. As for GGUGUGGAGUUUCAAAGUATT against DUXA, the figure is inactive: 0. The figure for GAACGAGGUGUACUGCCUGTT against FBLIM1 is inactive: 0.0604; for GGACCUCUCGAUUCACAAUTT against NCR2 it is inactive: -0.0526. As for CUAUCACUCUGGAACUGGATT against SMC2, the figure is inactive: -0.052; as for GCUUACUACACUUUUCUAATT against G6PC2, inactive: -0.0362; as for AGCGCAUCGUGAUUGGAGATT against ATP4A, inactive: 0. Take AGACGGUCCUCUUUCGACATT against LOC442229: the median seed-adjusted z-score is inactive: 0.183. As for AGCCUGAAACCAACACAUUTT against NAT8L, the figure is inactive: 0.

GAACCUGUACGGGAUGCUATT against KIF12: the median seed-adjusted z-score was inactive: 0.0971. As to CAGUGACUAUAAACUUGUUTT against PCDHAC1, the median seed-adjusted z-score was inactive: -0.189.

With CUAUAGCUGUCUCCCAGAATT against PRICKLE2, the median seed-adjusted z-score was active: -1.12. GGGCAACUUCAAAUCGAUATT against DNAJB6: the median seed-adjusted z-score is inactive: -0.251. The figure for GGUCUUGGAGGGAAUCCUATT against AOF2 is inactive: -0.215; for GCCCAUCGAUGGUAUACAUTT against SMARCA2 it is inactive: -0.458. On to CAGCCCUAAUAAUUACUUUTT against PCDHGA11, for which the median seed-adjusted z-score is inactive: 0.0518. The figure for UCACACUCAUGGAUCAGAATT against MYL5 is inactive: 0.097.

With GAUUGCAUCUGGACCAUUATT against NETO2, the median seed-adjusted z-score is inactive: -0.136. Take GGAAAGUUGUGGGUCUAAUTT against SERPINA7: the median seed-adjusted z-score was inactive: 0.0925.

On to CGACGGUGACUGGUACUUUTT against LGI3, for which the median seed-adjusted z-score is inactive: -0.0189.

Turning to CGAGACCAGCAGUACGAGATT against TNFRSF25, the median seed-adjusted z-score was inactive: -0.534. Consider GAAUAUAACUCCACAAGAUTT against ST8SIA5, for which the median seed-adjusted z-score was inactive: -0.358. With GAAUCACCAUUUAAGUGCATT against PDE1C, the median seed-adjusted z-score is inactive: 0.157. As for GAUCGUCUUUUCUACAUCUTT against SLC27A1, the figure is inactive: 0.253. Turning to GCUCGUGACUGUAGAUGAATT against CCT8L2, the median seed-adjusted z-score was inactive: -0.39. The figure for GGCUGAUAAAAAUCCACGATT against RICS is inactive: 0.665; for CCAAGGCUGUCAGACUUCATT against CPSF2 it is inactive: 0.0263. Consider GGCAUUACCUCUGCAGGAATT against IP6K1, for which the median seed-adjusted z-score is inactive: -0.317. For GCAUGUUAUUGAAUUAUCATT against TM9SF2, the median seed-adjusted z-score is active: 1.09. With GACCAUCAACCUUACUGUATT against HEPACAM, the median seed-adjusted z-score was inactive: -0.063. On to CACCUCUAAUCAUCGAUGATT against UAP1, for which the median seed-adjusted z-score is inactive: 0.0411. As for CCAGCGGAAUUGUCAAUGATT against KCNIP2, the figure is inactive: 0.415. The figure for GCAACUACUUCCGAUCUAATT against KIF17 is inactive: -0.151; for CAAUGGAUCGGCUUCCUUATT against ADRA2B it is inactive: 0.00853; for UAAGCAACCUGCUAACUGATT against TMCO6 it is inactive: -0.227. Take CUAUCCUCCUGUCUGCGAATT against ZNF167: the median seed-adjusted z-score was inactive: 0.409. With GCAUUAGGUUCACUAAAUATT against GPR160, the median seed-adjusted z-score was inactive: -0.278. Take CUGUUACAGUGAAACGGAATT against MYNN: the median seed-adjusted z-score was inactive: 0.0702. The figure for AGCUAUUCAGAGCCUGAAATT against ATP5L is inactive: -0.295; for GGAAAUUUGUAGCUCAAGUTT against CHRNB3 it is inactive: -0.0155; for GGCUGAAUGUAACAGAGGATT against OAZ1 it is inactive: 0.144. Regarding CGGACAGAUCGAUUACUCATT against ZNF740, the median seed-adjusted z-score is inactive: -0.914. The figure for GAAAGUCCAGAGGAGUUUATT against ZNF434 is inactive: 0.545.

Consider CCUCGAUAAUAUAACACGATT against FCGRT, for which the median seed-adjusted z-score was inactive: -0.00396. On to GCCUAGCUAUAGUUAGGAATT against RABL2B, for which the median seed-adjusted z-score is inactive: 0.454.
